Reference: the supplement of paper PMC10382679
Single values of this set are uncertain.

B1: Rpb7; numbered along this chain (parent)
chain: MFFIKDLSLNITLHPSFFGPRMKQYLKTKLLEEVEGSCTGKFGYILCVLDYDNIDIQRGRILPTDGSAEFNVKYRAVVFKPFKGEVVDGTVVSCSQHGFEVQVGPMKVFVTKHLMPQDLTFNAGSNPPSYQSSEDVITIKSRIRVKIEGCISQVSSIHAIGSIKEDYLGAI

Columns and labels:
[1] = variants of: B1; experiment: log2 fold change of mutant abundance, UV-irradiated vs unirradiated; higher = more UV resistant (enriched after UV); conditions: with Saccharomyces cerevisiae rad7Δ rad26Δ; UV dose (J/m2): 10; genetic background: rad7Δ rad26Δ rpb7Δ + plasmid RPB7 library; outgrowth: 10 cell divisions
Method: (§1)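 Error-prone PCR random mutant library of yeast RPB7 (codons 2-171) on a LEU2 plasmid, shuffled into rad7Δ rad26Δ S. cerevisiae (BJ5465 background) with genomic RPB7 deleted. Cells were irradiated with 10 J/m2 UV (254 nm) or left unirradiated and grown for 10 divisions. Plasmid RPB7 amplicons were Illumina-sequenced and per-codon amino-acid counts were compared UV vs no UV with NOISeq (3 repeats, ARSyNseq batch correction). Positive log2FC means enrichment after UV, i.e. UV resistance / derepressed TCR.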

[2] = variants of: B1; experiment: NOISeq theta enrichment statistic, UV-irradiated vs unirradiated (dimensionless); higher = more UV resistant (enriched after UV); conditions: with Saccharomyces cerevisiae rad7Δ rad26Δ; UV dose (J/m2): 10; genetic background: rad7Δ rad26Δ rpb7Δ + plasmid RPB7 library; outgrowth: 10 cell divisions
Method: as §1

Variant	log2 fold change of mutant abundance [1]	NOISeq theta enrichment statistic [2]
S16P	-0.174	-0.526
S16T	-0.000482	-0.0022
S16A	-0.391	-0.603
S16F	-0.124	-0.212
S16C	0.0785	0.076
S16V	-0.0772	-0.0386
S16Y	-0.293	-0.426
P15T	-0.139	-0.227
P15Q	-0.168	-0.486
P15A	0.135	0.157
P15R	-0.467	-0.599
P15L	-0.197	-0.42
P15S	0.153	0.331
K5Q	0.0607	0.0757
K5D	-0.245	-0.0739
K5G	1.09	0.384
K5V	-0.668	-0.209
K5I	0.0267	0.0814
K5Y	0.242	0.134

Variant	log2 fold change of mutant abundance [1]	NOISeq theta enrichment statistic [2]
K5T	0.109	0.17
K5E	0.0161	0.0309
K5N	-0.0686	-0.2
K5S	-0.774	-0.317
K5R	0.168	0.547
K5L	-1.05	-0.51
K5P	0.566	0.536
F2L	0.0371	0.101
F2S	-0.0677	-0.0744
F2V	0.128	0.169
F2G	-0.314	-0.213
F2Y	-0.00208	-0.0057
F2C	-0.16	-0.114
F2I	0.0797	0.164
K27E	0.0342	0.123
S8E	-0.518	-0.322
S8M	-0.599	-0.352
S8T	-0.035	-0.136
S8C	-0.362	-0.236

Complete entries from above:
K5T reads log2 fold change of mutant abundance [1]: 0.109; NOISeq theta enrichment statistic [2]: 0.17
F2S reads log2 fold change of mutant abundance [1]: -0.0677; NOISeq theta enrichment statistic [2]: -0.0744

Further records.

Variant	log2 fold change of mutant abundance [1]	NOISeq theta enrichment statistic [2]
S8W	0.147	0.146
S8R	-0.462	-0.365
S8A	0.0858	0.0883
S8F	-0.75	-0.367
S8L	0.0426	0.0798
S8P	0.334	0.761
Y25H	0.239	0.75
Y25D	-0.0556	-0.0548
Y25L	0.403	0.241
Y25S	0.407	0.512
Y25C	0.193	0.526
Y25F	0.259	0.74
Y25I	-0.166	-0.153
Y25K	0.729	0.327
Y25N	0.241	0.722
M22I	-0.157	-0.477
M22L	0.0705	0.399
M22A	0.143	0.0585
M22S	-0.339	-0.235
